Results: the supplement of paper PMC10849652
This is one part of the list.

Chains of the proteins cited; added tags and fusions are not shown. Lines headed by an entry give the natural chain unless they say otherwise; changes in a name come on top.
UniProt Q8NI27: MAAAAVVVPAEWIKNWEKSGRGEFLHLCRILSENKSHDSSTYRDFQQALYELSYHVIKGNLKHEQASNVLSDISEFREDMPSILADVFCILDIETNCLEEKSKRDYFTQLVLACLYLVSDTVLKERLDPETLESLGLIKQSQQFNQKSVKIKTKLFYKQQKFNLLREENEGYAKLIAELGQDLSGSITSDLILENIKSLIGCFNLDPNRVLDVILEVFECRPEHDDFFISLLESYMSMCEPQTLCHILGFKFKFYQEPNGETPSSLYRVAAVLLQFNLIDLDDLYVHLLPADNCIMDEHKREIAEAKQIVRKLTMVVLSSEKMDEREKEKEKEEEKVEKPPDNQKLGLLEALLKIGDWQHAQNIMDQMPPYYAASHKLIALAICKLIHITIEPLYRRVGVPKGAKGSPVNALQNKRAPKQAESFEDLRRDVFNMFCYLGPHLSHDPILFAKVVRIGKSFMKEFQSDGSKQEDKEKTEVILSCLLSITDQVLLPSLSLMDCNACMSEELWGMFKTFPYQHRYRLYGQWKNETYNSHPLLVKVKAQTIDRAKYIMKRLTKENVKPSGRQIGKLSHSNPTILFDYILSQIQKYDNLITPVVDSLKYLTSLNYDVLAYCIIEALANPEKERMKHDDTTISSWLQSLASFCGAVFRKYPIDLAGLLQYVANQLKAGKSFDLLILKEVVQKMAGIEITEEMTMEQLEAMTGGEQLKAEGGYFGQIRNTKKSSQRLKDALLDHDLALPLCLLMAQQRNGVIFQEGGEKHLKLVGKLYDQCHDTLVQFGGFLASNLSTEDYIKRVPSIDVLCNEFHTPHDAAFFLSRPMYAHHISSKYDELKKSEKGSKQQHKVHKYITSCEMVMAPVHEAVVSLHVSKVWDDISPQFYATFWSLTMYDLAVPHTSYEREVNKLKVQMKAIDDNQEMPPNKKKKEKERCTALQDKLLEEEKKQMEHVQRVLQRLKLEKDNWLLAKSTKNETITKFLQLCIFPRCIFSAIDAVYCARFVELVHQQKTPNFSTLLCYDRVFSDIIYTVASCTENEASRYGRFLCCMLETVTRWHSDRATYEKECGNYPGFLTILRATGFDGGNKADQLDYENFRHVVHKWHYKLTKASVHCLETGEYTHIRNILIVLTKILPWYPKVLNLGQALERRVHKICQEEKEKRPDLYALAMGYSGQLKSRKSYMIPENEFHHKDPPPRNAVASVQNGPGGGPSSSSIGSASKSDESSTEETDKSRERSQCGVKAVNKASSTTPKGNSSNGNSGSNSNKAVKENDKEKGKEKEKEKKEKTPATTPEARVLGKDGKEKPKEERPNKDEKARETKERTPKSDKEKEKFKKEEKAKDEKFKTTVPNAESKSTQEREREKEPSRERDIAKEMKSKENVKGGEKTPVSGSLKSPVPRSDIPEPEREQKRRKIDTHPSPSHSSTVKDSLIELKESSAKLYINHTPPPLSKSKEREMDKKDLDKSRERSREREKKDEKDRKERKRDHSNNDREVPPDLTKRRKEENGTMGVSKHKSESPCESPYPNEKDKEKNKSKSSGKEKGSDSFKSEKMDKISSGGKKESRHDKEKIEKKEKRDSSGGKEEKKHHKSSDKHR
UniProt P10646, whole entry, looked up: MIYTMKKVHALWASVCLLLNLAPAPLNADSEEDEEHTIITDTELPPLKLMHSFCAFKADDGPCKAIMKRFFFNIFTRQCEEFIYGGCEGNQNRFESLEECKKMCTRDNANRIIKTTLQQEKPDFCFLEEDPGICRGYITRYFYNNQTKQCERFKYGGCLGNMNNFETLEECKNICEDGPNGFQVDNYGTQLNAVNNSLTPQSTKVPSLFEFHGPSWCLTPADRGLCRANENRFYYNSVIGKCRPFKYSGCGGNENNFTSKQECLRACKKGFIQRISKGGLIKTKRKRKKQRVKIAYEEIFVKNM
UniProt Q9Y2W1: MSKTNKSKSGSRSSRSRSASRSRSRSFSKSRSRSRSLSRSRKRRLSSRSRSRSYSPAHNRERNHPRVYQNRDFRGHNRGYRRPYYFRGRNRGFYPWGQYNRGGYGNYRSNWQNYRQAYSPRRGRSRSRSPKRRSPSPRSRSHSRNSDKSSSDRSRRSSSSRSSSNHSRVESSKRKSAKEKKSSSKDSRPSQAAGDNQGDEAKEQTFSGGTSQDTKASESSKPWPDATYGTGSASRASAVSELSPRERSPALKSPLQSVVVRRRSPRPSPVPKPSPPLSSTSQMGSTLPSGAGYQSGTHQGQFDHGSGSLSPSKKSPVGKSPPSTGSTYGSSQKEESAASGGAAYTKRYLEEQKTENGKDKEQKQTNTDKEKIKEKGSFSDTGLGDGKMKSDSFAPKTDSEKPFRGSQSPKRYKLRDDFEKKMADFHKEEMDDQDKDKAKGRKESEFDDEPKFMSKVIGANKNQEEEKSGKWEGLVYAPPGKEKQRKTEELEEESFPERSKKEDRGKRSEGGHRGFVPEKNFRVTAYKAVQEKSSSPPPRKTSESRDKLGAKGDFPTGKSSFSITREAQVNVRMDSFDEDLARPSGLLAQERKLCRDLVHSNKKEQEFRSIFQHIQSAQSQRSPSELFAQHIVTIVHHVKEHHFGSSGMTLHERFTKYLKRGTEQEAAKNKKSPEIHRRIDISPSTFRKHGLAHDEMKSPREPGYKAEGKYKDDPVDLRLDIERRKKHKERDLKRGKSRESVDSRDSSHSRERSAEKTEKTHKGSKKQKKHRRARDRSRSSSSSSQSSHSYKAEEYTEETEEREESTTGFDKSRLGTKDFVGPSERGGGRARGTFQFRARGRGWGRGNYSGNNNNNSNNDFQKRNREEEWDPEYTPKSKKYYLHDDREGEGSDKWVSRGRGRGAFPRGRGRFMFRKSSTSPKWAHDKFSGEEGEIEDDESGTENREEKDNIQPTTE
UniProt P07996: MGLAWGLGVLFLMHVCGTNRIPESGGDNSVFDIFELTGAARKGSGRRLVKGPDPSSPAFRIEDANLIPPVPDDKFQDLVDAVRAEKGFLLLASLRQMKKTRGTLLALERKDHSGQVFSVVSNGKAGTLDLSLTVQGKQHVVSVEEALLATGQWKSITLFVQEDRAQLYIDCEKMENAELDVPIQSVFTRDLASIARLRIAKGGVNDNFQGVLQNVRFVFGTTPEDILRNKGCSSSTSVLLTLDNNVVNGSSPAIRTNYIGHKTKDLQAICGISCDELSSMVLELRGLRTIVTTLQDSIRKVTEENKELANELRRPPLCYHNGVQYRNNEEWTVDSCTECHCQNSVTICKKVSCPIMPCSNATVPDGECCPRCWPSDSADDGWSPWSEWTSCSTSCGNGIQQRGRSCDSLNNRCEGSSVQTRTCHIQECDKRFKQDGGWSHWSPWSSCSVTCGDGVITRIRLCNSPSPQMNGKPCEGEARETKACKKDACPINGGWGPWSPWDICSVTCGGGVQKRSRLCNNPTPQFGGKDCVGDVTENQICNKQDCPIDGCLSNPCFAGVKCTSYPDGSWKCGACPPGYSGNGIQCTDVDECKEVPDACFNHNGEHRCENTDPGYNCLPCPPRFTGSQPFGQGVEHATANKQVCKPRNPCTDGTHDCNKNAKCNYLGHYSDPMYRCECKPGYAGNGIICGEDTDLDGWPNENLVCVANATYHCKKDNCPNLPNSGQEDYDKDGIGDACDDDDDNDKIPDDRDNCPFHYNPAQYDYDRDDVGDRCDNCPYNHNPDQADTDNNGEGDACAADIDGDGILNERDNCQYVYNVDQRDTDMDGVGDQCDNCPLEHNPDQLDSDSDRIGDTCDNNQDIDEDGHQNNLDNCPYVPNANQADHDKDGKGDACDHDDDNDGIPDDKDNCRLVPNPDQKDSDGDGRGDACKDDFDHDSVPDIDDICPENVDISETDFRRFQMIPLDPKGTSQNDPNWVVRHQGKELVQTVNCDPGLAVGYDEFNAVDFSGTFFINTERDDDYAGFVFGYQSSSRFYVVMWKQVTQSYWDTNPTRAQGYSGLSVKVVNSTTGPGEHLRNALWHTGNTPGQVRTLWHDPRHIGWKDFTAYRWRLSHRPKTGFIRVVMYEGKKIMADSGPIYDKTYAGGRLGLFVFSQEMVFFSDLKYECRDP
UniProt P01033: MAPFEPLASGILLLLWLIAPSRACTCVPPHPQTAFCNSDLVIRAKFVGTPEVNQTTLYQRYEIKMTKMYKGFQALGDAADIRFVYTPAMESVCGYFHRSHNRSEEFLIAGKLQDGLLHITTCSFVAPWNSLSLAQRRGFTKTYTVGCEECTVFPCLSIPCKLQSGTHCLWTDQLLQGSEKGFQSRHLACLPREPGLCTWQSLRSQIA
UniProt Q15582: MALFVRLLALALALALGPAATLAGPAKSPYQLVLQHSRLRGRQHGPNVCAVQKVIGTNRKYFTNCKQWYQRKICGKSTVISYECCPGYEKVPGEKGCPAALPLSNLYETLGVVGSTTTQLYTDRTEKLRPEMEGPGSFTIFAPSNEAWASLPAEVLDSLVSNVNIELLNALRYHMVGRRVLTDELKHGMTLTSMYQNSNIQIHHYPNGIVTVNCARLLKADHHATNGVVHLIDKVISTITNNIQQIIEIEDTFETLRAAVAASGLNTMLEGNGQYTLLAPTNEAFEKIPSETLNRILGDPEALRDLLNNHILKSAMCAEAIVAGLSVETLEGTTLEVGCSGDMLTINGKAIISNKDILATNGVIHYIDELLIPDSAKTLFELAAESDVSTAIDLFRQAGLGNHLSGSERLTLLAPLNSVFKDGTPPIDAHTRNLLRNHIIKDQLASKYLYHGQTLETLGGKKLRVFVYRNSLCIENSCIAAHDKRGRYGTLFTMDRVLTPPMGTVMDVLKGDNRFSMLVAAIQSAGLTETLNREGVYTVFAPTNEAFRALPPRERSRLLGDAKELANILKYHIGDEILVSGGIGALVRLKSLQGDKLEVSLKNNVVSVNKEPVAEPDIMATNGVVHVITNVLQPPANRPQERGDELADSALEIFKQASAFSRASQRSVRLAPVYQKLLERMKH
UniProt Q9UPU7: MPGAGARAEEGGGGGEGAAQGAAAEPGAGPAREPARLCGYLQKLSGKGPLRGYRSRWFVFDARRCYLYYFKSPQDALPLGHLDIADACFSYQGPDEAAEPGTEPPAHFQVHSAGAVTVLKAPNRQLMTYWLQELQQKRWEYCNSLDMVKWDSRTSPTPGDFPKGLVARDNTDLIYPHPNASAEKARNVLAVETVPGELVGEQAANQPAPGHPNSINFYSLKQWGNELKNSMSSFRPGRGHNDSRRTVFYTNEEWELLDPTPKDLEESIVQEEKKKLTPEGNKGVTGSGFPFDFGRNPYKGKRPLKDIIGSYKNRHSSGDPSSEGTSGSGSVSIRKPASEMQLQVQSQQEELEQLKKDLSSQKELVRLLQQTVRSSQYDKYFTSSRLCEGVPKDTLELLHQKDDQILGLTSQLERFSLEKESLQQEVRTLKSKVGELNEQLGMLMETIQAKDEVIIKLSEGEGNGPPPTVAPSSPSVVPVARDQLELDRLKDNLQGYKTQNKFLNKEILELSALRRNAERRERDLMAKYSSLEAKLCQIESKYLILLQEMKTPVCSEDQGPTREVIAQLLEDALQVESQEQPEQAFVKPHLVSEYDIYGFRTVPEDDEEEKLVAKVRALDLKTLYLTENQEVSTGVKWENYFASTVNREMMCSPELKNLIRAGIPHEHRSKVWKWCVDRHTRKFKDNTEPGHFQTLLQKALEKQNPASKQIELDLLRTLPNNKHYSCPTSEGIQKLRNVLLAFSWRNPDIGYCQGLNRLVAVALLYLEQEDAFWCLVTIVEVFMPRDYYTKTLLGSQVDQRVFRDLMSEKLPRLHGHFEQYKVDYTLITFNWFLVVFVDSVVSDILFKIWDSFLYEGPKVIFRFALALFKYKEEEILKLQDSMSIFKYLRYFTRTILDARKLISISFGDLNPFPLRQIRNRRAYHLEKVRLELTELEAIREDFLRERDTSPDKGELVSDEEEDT
UniProt Q9HA65: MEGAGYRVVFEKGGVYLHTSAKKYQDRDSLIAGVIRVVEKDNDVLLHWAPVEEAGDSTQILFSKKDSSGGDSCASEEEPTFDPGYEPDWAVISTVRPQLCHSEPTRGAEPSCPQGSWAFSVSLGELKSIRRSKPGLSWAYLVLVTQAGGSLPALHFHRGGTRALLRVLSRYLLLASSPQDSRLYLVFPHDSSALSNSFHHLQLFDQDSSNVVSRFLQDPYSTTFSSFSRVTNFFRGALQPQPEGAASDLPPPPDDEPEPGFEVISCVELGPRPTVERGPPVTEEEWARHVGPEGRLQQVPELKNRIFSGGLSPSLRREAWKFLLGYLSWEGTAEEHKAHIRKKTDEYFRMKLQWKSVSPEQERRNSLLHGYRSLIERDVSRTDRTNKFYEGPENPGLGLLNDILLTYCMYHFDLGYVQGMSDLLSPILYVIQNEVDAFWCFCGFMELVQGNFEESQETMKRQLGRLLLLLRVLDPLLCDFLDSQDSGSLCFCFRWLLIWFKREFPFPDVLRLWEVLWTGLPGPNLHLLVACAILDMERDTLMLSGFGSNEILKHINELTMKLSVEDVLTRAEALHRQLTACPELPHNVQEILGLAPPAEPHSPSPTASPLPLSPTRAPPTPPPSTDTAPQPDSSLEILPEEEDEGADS

Each target was assayed with O=C1NC(=O)C(c2cnc3ccccn23)=C1c1cn2c3c(cc(F)cc13)CN(C(=O)N1CCCCC1)CC2 (assay: log2 fold change, soluble protein after heating vs DMSO (PISA); higher = thermal stabilisation; K562 cells, 10 uM, 30 min; active = over 0.2 and 3.5 SD of the protein, either way, in both replicates (recomputed)).
In short: (§1)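 K562 cells at 2×10^6 cells/mL were given 10 μM compound for 30 min. Aliquots then went through 3 min of heating across 48°C-58°C, were pooled, and were extracted in PBS with 0.5% NP-40 at 4°C, and the supernatant after 21,000xg for 90 min was quantified by TMTpro 16plex LC-MS/MS with channel sums equalised. Thermal stability relative to control samples, from duplicates, is given as log2 fold change.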

log2 fold change, inactive:
TBC1D14 (UniProt Q9P2M4) 0.098
TGOLN2 isoform 7 (UniProt O43493) -0.019
TIMMDC1 (UniProt Q9NPL8) -0.025
THOC2 (UniProt Q8NI27) 0.029
TFPI (UniProt P10646) -0.009
THYN1 (UniProt Q9P016) -0.022
THRAP3 (UniProt Q9Y2W1) -0.026
TK1 (UniProt K7ERV3) -0.116
TFDP2 (UniProt Q14188) -0.119
THBS1 (UniProt P07996) 0.045
TIMM22 (UniProt Q9Y584) -0.045
TIMM10B (UniProt Q9Y5J6) -0.04
TBK1 (UniProt Q9UHD2) -0.014
TKT, A0A0B4J1R6 0.118
TGFB1 (UniProt P01137) 0.003
THUMPD1 (UniProt Q9NXG2) -0.03
TGS1 (UniProt Q96RS0) 0.022
TIMM13 (UniProt Q9Y5L4) 0.152
TCF12 isoform 3 (UniProt Q99081) -0.135
THOC6 (UniProt Q86W42) -0.074
TLCD1 (UniProt Q96CP7) -0.115
TBC1D24 (UniProt Q9ULP9) -0.082
TESC (UniProt Q96BS2) -0.088
TBC1D4 (UniProt O60343) 0.081
TEX2 isoform 2 (UniProt Q8IWB9) 0.012
TIMP1 (UniProt P01033) -0.053
TIMM17B (UniProt O60830) -0.008
TIMM9 (UniProt Q9Y5J7) -0.058
TBL1XR1 (UniProt Q9BZK7) 0.123
TGFBI (UniProt Q15582) -0.01
TFR2 (UniProt Q9UP52) -0.035
THOC3 (UniProt Q96J01) -0.021

These targets were tested with c1cc(OCCN2CCCCC2)cc(-c2n[nH]c3ccc(-c4nnc[nH]4)cc23)c1 in the same assay as above.
In short: as §1

log2 fold change, inactive:
TLCD3A (UniProt Q8TBR7) 0
TGOLN2 isoform 7 (UniProt O43493) -0.036
TIMMDC1 (UniProt Q9NPL8) 0.003
THOC2 (UniProt Q8NI27) -0.253
THYN1 (UniProt Q9P016) -0.034
THRAP3 (UniProt Q9Y2W1) -0.257
TFDP2 (UniProt Q14188) -0.091
TCOF1 isoform 6 (UniProt Q13428) -0.042
THBS1 (UniProt P07996) 0.192
TIMM22 (UniProt Q9Y584) -0.027
TDRD15 (UniProt B5MCY1) -0.169
TIMM10B (UniProt Q9Y5J6) 0.022
TBK1 (UniProt Q9UHD2) -0.029
TKT, A0A0B4J1R6 -0.461
TGFB1 (UniProt P01137) -0.06
THUMPD1 (UniProt Q9NXG2) -0.013
TGS1 (UniProt Q96RS0) 0.046
TIMM13 (UniProt Q9Y5L4) 0.107
TENT5C (UniProt Q5VWP2) -0.133
TCF12 isoform 3 (UniProt Q99081) -0.096
THOC6 (UniProt Q86W42) -0.056
TLCD1 (UniProt Q96CP7) -0.073
TBC1D24 (UniProt Q9ULP9) -0.096
TESC (UniProt Q96BS2) -0.043
TBC1D4 (UniProt O60343) -0.011
TIMP1 (UniProt P01033) -0.099
TBC1D2B (UniProt Q9UPU7) -0.063
TIMM17B (UniProt O60830) -0.019
TIMM9 (UniProt Q9Y5J7) -0.003
TBL1XR1 (UniProt Q9BZK7) -0.048
TGFBI (UniProt Q15582) 0.202
TFR2 (UniProt Q9UP52) -0.067
TBC1D17 (UniProt Q9HA65) -0.09
THOC3 (UniProt Q96J01) -0.003
